Experimental data: PubChem BioAssay AID504786 (Drosophila RNAi Screening Center, 2011)

Assay: 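Knock-downs reducing HIF reporter induction by the iron chelator DFO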 (primary screen)
Cell system: Drosophila S2 cells with a stable HIF luciferase reporter
Reagents: long dsRNA against Drosophila genes, about 0.2 µg dsRNA per well of a 384-well plate
Duration: three days of knock-down, then 20 h of DFO before reading
Treatment: desferrioxamine (DFO) at 100 µM, an iron chelator that mimics hypoxia, for 20 h
Detection: 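HIF reporter luminescence in cells given 100 µM DFO for 20 h, using the mouse ldh-a hypoxia-response element, scored as per-plate z-scores; higher means greater loss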
Scale: z-score: higher = stronger loss of HIF reporter signal
The screen tested about 21,000 reagents; shown is a random part of those with a known target gene and a result. 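Primary screen; positive scores mean lost reporter signal, so the sign may be inverted from the usual convention.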 The numbers tell different reagents against one gene apart. A plus sign joins genes that one reagent is predicted to hit. Reagent sequences are not shown.

| predicted target | reagent no. | z-score, replicate 1 | z-score, replicate 2 | z-score, replicate 3 | z-score, replicate 4 |
| --- | --- | --- | --- | --- | --- |
| betaCOP | 1 | -0.5 | 1.1 | – | – |
| CG45105 | 1 | 0.8 | 0.1 | – | – |
| CG45105 | 2 | 1.1 | 1 | – | – |
| CG14744 | 1 | -0.3 | -0.7 | – | – |
| Arpc5 | 1 | 0.3 | 0.1 | – | – |
| CG4377 | 1 | -0.3 | 0.1 | – | – |
| CG12438 | 1 | -0.1 | 0.1 | – | – |
| SMC2 | 1 | -0.4 | -0.3 | – | – |
| CG3078 | 1 | -0.3 | -1 | – | – |
| CG7054 | 1 | -0.3 | -0.1 | – | – |
| MED4 | 1 | 0.4 | 1.9 | – | – |
| CG31468 | 1 | 0 | 0.2 | – | – |
| na | 1 | -0.1 | -0.7 | – | – |
| MESR4 | 1 | 0.6 | 0.1 | – | – |
| CG5386 | 1 | -0.3 | -0.4 | – | – |
| nur | 1 | 0.5 | 0.4 | – | – |
| CG7745 | 1 | 0.7 | 0.1 | – | – |
| CG14088 | 1 | -0.2 | 0.3 | – | – |
| CG15317 | 1 | -0.2 | -0.7 | – | – |
| Meltrin | 1 | -0.4 | -0.6 | – | – |
| RSG7 | 1 | -0.3 | -0.4 | – | – |
| nompC | 1 | -0.3 | 0 | – | – |
| CG34135 + Nasp | 1 | 0.6 | 0.8 | – | – |
| RpL36A | 1 | 3.5 | 4.3 | – | – |
| dve | 1 | -0.1 | -0.1 | – | – |
| Scm | 1 | -0.4 | -0.9 | – | – |
| CG3149 | 1 | -0.3 | -0.5 | – | – |
| Gld | 1 | -0.2 | 0.2 | – | – |
| CG43901 | 1 | -0.3 | -0.3 | – | – |
| CG43901 | 2 | -0.3 | -0.9 | – | – |
| CG14397 | 1 | -0.3 | -0.7 | – | – |
| CG1924 | 1 | 0 | 0.1 | – | – |
| C901 | 1 | 0.1 | -1.2 | – | – |
| CG14818 | 1 | -0.4 | 0.3 | – | – |
| Vav | 1 | -0.5 | -0.6 | – | – |
| CG6462 | 1 | -0.2 | -0.6 | – | – |
| inaF-A | 1 | -0.4 | -0.5 | – | – |
| CG6891 | 1 | -0.3 | -0.2 | – | – |
| Sk1 | 1 | -0.1 | 0.6 | – | – |
| PH4alphaSG2 | 1 | -0.5 | -0.1 | – | – |
| Lcp65Ag3 + Lcp65Ag2 + Lcp65Ag1 | 1 | -0.3 | -0.7 | – | – |
| Lcp65Ag3 + Lcp65Ag2 + Lcp65Ag1 | 2 | -0.3 | -0.6 | – | – |
| hoka | 1 | -0.1 | 2.3 | – | – |
| mid | 1 | -0.2 | 0.1 | -0.2 | -0.3 |
| CG34355 | 1 | -0.4 | -1.1 | 0 | -0.4 |
| CG34355 | 2 | -0.3 | -0.5 | – | – |
| CG34355 | 3 | 0.1 | -0.3 | – | – |
| CG3288 | 1 | -0.3 | -0.3 | – | – |
| CG17744 | 1 | -0.4 | -0.8 | – | – |
| CG7888 | 1 | -0.2 | -0.8 | – | – |
| Taf10b + Taf10 | 1 | 0 | -0.4 | – | – |
| SuUR | 1 | -0.3 | 0.3 | – | – |
| CG11663 | 1 | 0.9 | 0.1 | – | – |
| CG33639 | 1 | -0.3 | 0 | -0.5 | -0.2 |
| mag | 1 | -0.3 | -0.4 | – | – |
| RabGGTa | 1 | -0.4 | -0.3 | – | – |
| Grip128 | 1 | -0.2 | -0.4 | – | – |
| PrBP | 1 | -0.4 | -0.2 | – | – |
| CG30471 | 1 | -0.1 | -0.1 | – | – |
| Mt2 | 1 | 1.1 | -0.4 | – | – |
| PDCD-5 | 1 | -0.4 | -0.5 | – | – |
| Gmer | 1 | -0.3 | -0.4 | – | – |
| side-VIII | 1 | -0.8 | -0.2 | – | – |
| side-VIII | 2 | 3 | 3.8 | – | – |
| side-VIII | 3 | 0 | 0.4 | -0.6 | -0.4 |
| CG13060 | 1 | -0.1 | -0.4 | – | – |
| CG34008 | 1 | -0.2 | -0.3 | – | – |
| CG2747 | 1 | 0.1 | 0.1 | – | – |
| CG12672 | 1 | -0.2 | 0 | -1 | -0.3 |
| Pxt | 1 | -0.2 | 0.2 | – | – |
| B-H2 | 1 | 5.3 | 6.1 | – | – |
| l(3)neo38 | 1 | -0.3 | -0.6 | 0 | -0.3 |
| l(3)neo38 | 2 | -0.3 | -0.7 | – | – |
| dikar | 1 | -0.1 | -0.4 | – | – |
| Ctr1C | 1 | 0 | -0.4 | – | – |
| eIF2Bdelta | 1 | -0.3 | -0.6 | – | – |
| Rpn12R | 1 | -0.1 | 0.2 | – | – |
| CG2129 | 1 | 0 | 0.3 | – | – |
| CG12862 | 1 | -0.3 | -0.6 | – | – |
| CG30159 | 1 | -0.3 | -0.5 | – | – |
| Hexo1 | 1 | -0.3 | -0.1 | – | – |
| Coq8 | 1 | -0.3 | -1.3 | – | – |
| Sumo | 1 | 3.1 | 4.5 | – | – |

8 entries from above in another layout.
predicted target,reagent no.,"z-score, replicate 1","z-score, replicate 2","z-score, replicate 3","z-score, replicate 4"
MESR4,1,0.6,0.1,,
CG5386,1,-0.3,-0.4,,
nur,1,0.5,0.4,,
CG7745,1,0.7,0.1,,
CG14088,1,-0.2,0.3,,
CG15317,1,-0.2,-0.7,,
Meltrin,1,-0.4,-0.6,,
RSG7,1,-0.3,-0.4,,
